# Laboratory results published in PubChem BioAssay AID2417 (National Center for Advancing Translational Sciences (NCATS), 2010).
# The whole screen tested about 140,000 compounds, of which about 4,300 (3.1%) were called active. The inconclusive results got no clear call from the source; some entries with a clear call stand among them for comparison.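 The calls were made as follows: active = readout at or below -70, meaning at least 70% loss of cells showing the perinucleolar compartment, a nuclear body marking cancer cells; inconclusive = readout between -30 and a set limit; inactive = the rest.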
# Test: High Content Assay for Compounds that inhibit the Assembly of the Perinucleolar Compartment;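 also: plate controls were DMSO wells for no effect and camptothecin positive control wells for full effect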
# Conditions: PC3M PTB-GFP, PNC prevalence imaging, 16 h; at 10 µM; stronger effect = lower value
# How it was run: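 Compounds are pinned in duplicate onto adhered PC3M cells stably expressing GFP-tagged PTB and incubated 16 h at 37 C. Cells are then fixed, nuclei stained with Hoechst, and PNC-positive cells counted.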
row,SMILES,"activity change (PNC), negative = inhibition"
1,c1cc(C(c2nnnn2C2CCCC2)N2CCOCC2)ccn1 (configuration not stated),inconclusive: -68.8%
2,CCOC(=O)c1sc(NC(C)=O)cc1C,inactive: 14.1%
3,COC(=O)c1ccc(NC(=O)CCS(=O)(=O)c2ccc(Br)s2)cc1,inconclusive: -33.9%
4,COc1cc(/C=C/C(=O)OCC(=O)NCc2cccs2)ccc1OCC#N,inactive: -16%
5,O=C(C1=NNC2C(=O)N(c3ccccc3)C(=O)C12)c1nc(Cl)ccc1Cl (configuration not stated),inconclusive: -39.6%
6,CC(C)(C)C1=C[C@@H](CO)C[C@@H](CO)C1,inconclusive: -33.1%
7,CCN(C(=O)c1cc2cc(OC)ccc2oc1=O)c1cccc(C)c1,inconclusive: -39.4%
8,COc1cc(CCN2C(=O)c3cccc4cccc(c34)C2=O)c(S(=O)(=O)N2CCC(C)CC2)cc1OC,inactive: -3.53%
9,O=C(CS(=O)(=O)Cc1ccccc1)Nc1nc2ccccc2s1,inconclusive: -75.1%
10,Cc1ccc(S(=O)(=O)NCC(=O)N2CCOCC2)cc1,inconclusive: -51%
11,COC(=O)C(NS(C)(=O)=O)(c1c(C)[nH]c2ccccc12)C(F)(F)F (configuration not stated),inconclusive: -38.7%
12,Cc1ccccc1NC(=S)NCc1ccccc1,inconclusive: -54.7%
13,CN(C)c1ccc(NC(=O)COC(=O)c2cc(=O)c3ccccc3o2)cc1,inconclusive: -31.1%
14,O=C(NCc1cccs1)c1ccc(Cl)s1,inactive: -3.38%
15,O=C(NCc1ccc2c(c1)OCO2)c1cccs1,inactive: -25.9%
16,COc1cc(NC(=O)c2cc(C3CC3)on2)c(OC)cc1Cl,inactive: 2.37%
17,C=CCn1c(SCc2ccccc2C#N)nnc1-c1cc(Br)ccc1O,inconclusive: -31.4%
18,CCCCCCNc1nc(NCc2ccco2)nc(OCC)n1,inconclusive: -33.6%
19,CCc1noc(N)c1C(=O)Nc1ccc(F)c(Cl)c1,inconclusive: -71.9%
20,Cn1cnnc1SCC(=O)c1c[nH]c2ccccc12,inconclusive: -43.4%
21,Cc1ccc(S(=O)(=O)Nc2nc(C)c(NC(=O)OCCCl)s2)cc1,inconclusive: -39.9%
22,C1CCC(n2nnnc2CN2CCN(C3CCCC3)CC2)CC1,inactive: 13.9%
23,COc1ccc2[nH]c(=S)[nH]c2c1,inactive: -12.2%

row,SMILES,"activity change (PNC), negative = inhibition"
1,CCn1cc(Br)c(C(=O)Nc2cccc(SC)c2)n1,inconclusive: -36.4%
2,CCOc1ccc(C(OC(=O)c2ccco2)C(=O)NCc2ccc(C)cc2)cc1 (configuration not stated),inactive: 25.7%
3,Brc1ccc(Cn2c(-c3cncs3)nc3ccccc32)cc1,inconclusive: -39.1%
4,Cc1cc(/C=C(\C#N)C(=O)Nc2ccccc2)c(C)n1-c1cccnc1,inconclusive: -39.7%
5,O=C1/C(=C/c2cccc([N+](=O)[O-])c2)CCc2ccccc21,inconclusive: -61.9%
6,CCCCC1C2=C(CCCC2=O)OC2=C1C(=O)CCC2,inconclusive: -48.2%
7,COC(=O)CNc1n[nH]c(=S)[nH]c1=O,inactive: 14.1%
8,CCS(=O)(=O)N1CCC(C(=O)Nc2cc(Cl)ccc2O)CC1,inconclusive: -33%
9,C#CCn1c(=NC(=O)c2cc(-c3cccs3)nc3ccccc23)sc2cc(S(N)(=O)=O)ccc21,inconclusive: -34.4%
10,O=C(c1ccc(CN2CCc3ccccc3C2)cc1)N1CCCCC1,inactive: -16.4%
11,CCN(CC)C(=O)CSc1nnc(-c2cc(OC)cc(OC)c2)o1,inconclusive: -52.2%
12,Cc1cc(NS(=O)(=O)c2ccc(NC(=O)C(C)Oc3ccc(Cl)cc3)cc2)no1 (configuration not stated),inconclusive: -47.1%
13,CC1CC1C(=O)OCC(=O)Nc1ccc(N=Nc2ccccc2)cc1 (configuration not stated),inconclusive: -35.4%
14,Cc1ccc(-n2c(SCC(=O)Nc3ncc(Cl)cc3Cl)nc3ccccc32)cc1,active: -115%
15,Cn1c(C(C#N)C2=C(Cl)C(=O)N(c3ccccc3)C2=O)nc2ccccc21 (configuration not stated),inactive: 13.4%
16,Cc1ccc(C(=O)CSc2nnc(-c3ccccc3)o2)cc1,active: -94.9%
17,Cn1c(=O)c2c(nc(N/N=C/c3ccc(OC(=O)c4ccco4)cc3)n2Cc2ccc(F)cc2)n(C)c1=O,inactive: -29%
18,Cc1ccc(NC(=O)c2cc(NC(=O)C3CC=CCC3C(=O)O)ccc2N2CCOCC2)cc1 (configuration not stated),inconclusive: -57.5%
19,O=C(NC1CCCCCCC1)C1CCC(CNc2c(N3CCCC3)c(=O)c2=O)CC1 (configuration not stated),active: -119%
20,CCOC(=O)c1cc(OC(=O)c2cccs2)n(-c2ccccc2)n1,inconclusive: -48.9%
21,Cc1cccc(C(=O)CC(=O)c2cc(Cl)ccc2O)c1,inactive: 26%
22,CCOC(=O)NNC1CC(=O)N(c2ccc(OC)cc2)C1=O (configuration not stated),inconclusive: -42.8%
23,CCOC(=O)c1oc2nc(C(C)C)c3c(c2c1N)CC(C)(C)OC3,inactive: 9.25%

row,SMILES,"activity change (PNC), negative = inhibition"
1,O=C(NCC1(c2ccccc2)CCOCC1)c1ccc(Br)o1,inconclusive: -36.4%
2,CSc1ncc(Cl)c(C(=O)NCc2ccc3c(c2)OCO3)n1,inconclusive: -50.3%
3,O=C(CC1C(=O)NCCN1C(=O)c1ccc(F)cc1)OCc1ccccc1 (configuration not stated),inconclusive: -33.3%
4,COc1cc(-c2c(C#N)c(N)nc(SCc3ccncc3)c2C#N)cc(OC)c1OC,inconclusive: -58.9%
5,Cc1cc(NC(=O)c2cc(-c3cccs3)on2)no1,inactive: -2.38%
6,CC(C)(C)C(=O)Nc1nnc(SCc2ccc(F)cc2)s1,inconclusive: -52%
7,CC(/C=N/NC(=O)Cn1cnc2c1c(=O)n(C)c(=O)n2C)=C\c1ccccc1,inconclusive: -42.1%
8,CCCCCCn1c(NCC)nc2c1c(=O)[nH]c(=O)n2C,active: -92.7%
9,Cc1nn(-c2cc(C)c3ccccc3n2)c2c1C1C(C2)C1(C)C (configuration not stated),inconclusive: -43.2%
10,CCOc1ccc(-c2cc(C(=O)O)c3ccccc3n2)c(OCC)c1,inconclusive: -44.6%
11,Fc1cccc(Nc2cc(-n3cccn3)ncn2)c1,inactive: -12.1%
12,CCN(C(=O)CCc1nc(-c2ccc(OC)cc2)no1)c1cc(OC)ccc1OC,inactive: 0.979%
13,COC1CCCCC1Nc1ccc(C)c(C)c1 (configuration not stated),inactive: -25.7%
14,O=C(Nc1ncc(C(F)(F)F)cc1Cl)C1COc2ccccc2O1 (configuration not stated),inconclusive: -39.5%
15,COc1ccc2nc(/C=N/NC(=O)[C@H](C)NC(=O)OC(C)(C)C)ccc2c1,inconclusive: -35.7%
16,COC(=O)CCCCCCCCC(O)CN1CCCCC1 (configuration not stated),inconclusive: -31.4%
17,CC(C)CCN(C)c1ccc(/C=N/n2cnnc2)cc1,inconclusive: -34.6%
18,O=C(NCCCN1CCOCC1)c1ccccc1-c1ccccc1,inconclusive: -54.3%
19,c1ccc(-c2csc(Nc3ccc4c(c3)OCCO4)n2)cc1,inactive: -5.49%
20,COc1ccc(S(=O)(=O)N[C@@H](C)C(=O)OCC(=O)Nc2cc3oc4ccccc4c3cc2OC)cc1,inconclusive: -43.7%
21,COC(=O)C1=C(C)Nc2nnnn2C1c1cc(OC)ccc1OC (configuration not stated),inconclusive: -36%
22,O=C1CCC(C(=O)Nc2cccc(C(F)(F)F)c2)N1 (configuration not stated),inconclusive: -41.1%
23,CC(=O)c1cc2c(cc1NC(=O)CCNC(=O)c1ccccc1Cl)OCO2,inconclusive: -31.7%

# Pulled one by one from the list above:
row,SMILES,"activity change (PNC), negative = inhibition"
1,O=C(NCC1(c2ccccc2)CCOCC1)c1ccc(Br)o1,inconclusive: -36.4%
14,O=C(Nc1ncc(C(F)(F)F)cc1Cl)C1COc2ccccc2O1 (configuration not stated),inconclusive: -39.5%
12,CCN(C(=O)CCc1nc(-c2ccc(OC)cc2)no1)c1cc(OC)ccc1OC,inactive: 0.979%
11,Fc1cccc(Nc2cc(-n3cccn3)ncn2)c1,inactive: -12.1%

# (more compounds)

row,SMILES,"activity change (PNC), negative = inhibition"
1,C=CCN=C(C)C1=C(O)CCC1=O,inactive: 54.7%
2,Cc1c(Br)c(C(F)(F)F)nn1CC(=O)N1CCCC1,inconclusive: -36%
3,O=C(Nc1ccc(S(=O)(=O)Nc2ncccn2)cc1)c1ccco1,inactive: 15.6%
4,COCCn1nnnc1C(c1cc2cc(OC)ccc2[nH]c1=O)N1CCC(Cc2ccccc2)CC1 (configuration not stated),inconclusive: -55.6%
5,CCc1ccc2c(c1)/C(=N/OC)C(=O)N2,inconclusive: -56.8%
6,COc1ccc(NC(=O)c2cccnc2C(=O)O)c(OC)c1,inconclusive: -48.9%
7,Cc1ccc(NC(=O)c2c(C(F)(F)F)nn(C)c2Cl)cc1C,inconclusive: -56.8%
8,CCOC(=O)C1=C(C)NC(=O)NC1c1ccc(OCC(=O)N2CCCCC2)cc1 (configuration not stated),inconclusive: -30.7%
9,CCOC(=O)/C=c1\s/c(=C(\C#N)C(=O)OCC)n(-c2ccccc2)c1=O,inactive: -22%
10,CC(=O)N(/N=C1\Sc2ccccc2C1=O)c1cccc(C)c1,inconclusive: -33.6%
11,COc1ccc(NC(=S)NNC(=O)c2nnn(-c3ccccc3)c2C)cc1,inconclusive: -37.5%
12,Cc1ccc(N(C(=O)C(F)(F)F)C(C(=O)NC2CCCCC2)c2ccncc2)cc1C (configuration not stated),inactive: 0.653%
13,Cc1ccc(SCc2[nH]nc3c2C2(C(=O)Nc4ccc(F)cc42)C(C#N)=C(N)O3)cc1 (configuration not stated),inconclusive: -30.1%
14,Cc1ccc(NC(=O)CN(C)C(=O)c2ccc(C(F)(F)F)cc2)cc1,inconclusive: -65.5%
15,CCCNS(=O)(=O)c1cccc(C(=O)NC2CCCc3ccccc32)c1 (configuration not stated),inactive: -25%
16,COc1cc(/C=c2/sc3nc(-c4ccccc4)c(-c4ccccc4)n3c2=O)cc(OC)c1OC,inconclusive: -45.9%
17,O=C(CCn1c(=O)sc2ccccc21)NCc1ccccc1,inconclusive: -38.3%
18,CN(C)S(=O)(=O)c1cccc(NC(=O)Cc2ccc(Cl)cc2)c1,inconclusive: -51%
19,CCOc1ccc(C2CC(c3ccccc3C)n3ncnc3N2)cc1 (configuration not stated),inconclusive: -63.5%
20,COc1ccccc1N(CC(=O)NCCSC(C)(C)C)S(C)(=O)=O,inconclusive: -60.8%
21,CC(C)(CO)NCC(=O)Nc1cc(C(F)(F)F)cc(NC(=O)CNC(C)(C)CO)c1Cl,inactive: 23.7%
22,CCNCC(=O)N1c2ccccc2CCc2ccc(NC(C)=O)cc21,active: -105%
23,C#CCNC(=O)/C=C/c1ccc(C)cc1,inconclusive: -52.6%
